The target of test [1] is T1, μ1A (AP1M1) expressed from cDNA in COS-7 cells (UniProt Q9BXS5).
T1 sequence: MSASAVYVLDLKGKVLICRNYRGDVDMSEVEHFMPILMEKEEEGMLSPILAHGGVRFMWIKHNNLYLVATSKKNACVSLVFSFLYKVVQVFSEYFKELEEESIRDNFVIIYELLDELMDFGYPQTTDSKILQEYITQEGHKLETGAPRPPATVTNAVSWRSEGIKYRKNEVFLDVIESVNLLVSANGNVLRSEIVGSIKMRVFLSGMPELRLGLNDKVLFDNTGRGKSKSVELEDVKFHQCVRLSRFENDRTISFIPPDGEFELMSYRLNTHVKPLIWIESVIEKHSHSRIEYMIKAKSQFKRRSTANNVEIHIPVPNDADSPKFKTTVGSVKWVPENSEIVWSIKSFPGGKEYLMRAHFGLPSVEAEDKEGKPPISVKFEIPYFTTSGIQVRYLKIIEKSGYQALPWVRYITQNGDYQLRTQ
The test is described as follows: co-IP; COS-7 cells cotransfected with WT hNIS or mutants and with μ1A or μ1B; IP with μ1A or μ1B antibodies, immunoblot with rabbit polyclonal anti-hNIS antibody; NIS signal in IP standardized to input and normalized to WT. In general terms: A western blot detects proteins with antibodies after separation by electrophoresis.

The target of test [2] is T2, μ1B (AP1M2) expressed from cDNA in COS-7 cells (UniProt Q9Y6Q5).
T2 sequence: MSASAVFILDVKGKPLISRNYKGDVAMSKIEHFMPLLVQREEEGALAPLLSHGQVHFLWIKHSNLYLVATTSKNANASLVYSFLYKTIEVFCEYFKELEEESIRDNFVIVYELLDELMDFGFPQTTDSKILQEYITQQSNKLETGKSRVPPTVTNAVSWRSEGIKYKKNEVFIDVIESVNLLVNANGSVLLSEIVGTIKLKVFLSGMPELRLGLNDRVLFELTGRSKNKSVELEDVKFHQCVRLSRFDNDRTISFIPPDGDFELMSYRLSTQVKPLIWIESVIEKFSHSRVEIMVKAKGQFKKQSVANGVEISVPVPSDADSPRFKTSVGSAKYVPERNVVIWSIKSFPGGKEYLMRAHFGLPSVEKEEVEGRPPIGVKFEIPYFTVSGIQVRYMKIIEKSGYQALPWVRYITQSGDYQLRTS
Described as above.

Results are given in words; binding and its absence hold for the method and conditions named. In cells and extracts the contact can be indirect. Some results given as binding are weak or reduced against the parent protein; the word gives no strength.

B1: hNIS L121A (protein, UniProt Q92911 1-643)
chain: MEAVETGERPTFGAWDYGVFALMLLVSTGIGLWVGLARGGQRSAEDFFTGGRRLAALPVGLSLSASFMSAVQVLGVPSEAYRYGLKFLWMCLGQLLNSVLTALLFMPVFYRLGLTSTYEYAEMRFSRAVRLCGTLQYIVATMLYTGIVIYAPALILNQVTGLDIWASLLSTGIICTFYTAVGGMKAVVWTDVFQVVVMLSGFWVVLARGVMLVGGPRQVLTLAQNHSRINLMDFNPDPRSRYTFWTFVVGGTLVWLSMYGVNQAQVQRYVACRTEKQAKLALLINQVGLFLIVSSAACCGIVMFVFYTDCDPLLLGRISAPDQYMPLLVLDIFEDLPGVPGLFLACAYSGTLSTASTSINAMAAVTVEDLIKPRLRSLAPRKLVIISKGLSLIYGSACLTVAALSSLLGGGVLQGSFTVMGVISGPLLGAFILGMFLPACNTPGVLAGLGAGLALSLWVALGATLYPPSEQTMRVLPSSAARCVALSVNASGLLDPALLPANDSSRAPSSGMDASRPALADSFYAISYLYYGALGTLTTVLCGALISCLTGPTKRSTLAPGLLWWDLARQTASVAPKEEVAILDDNLVKGPEELPTGNKKPPGFLPTNEDRLFFLGQKELEGAGSWTPCVGHDGGRDQQETNL
Regarding B1, the binding entry in test [1] and in test [2] was “binds” in each case.

B2: hNIS Y118A (protein, UniProt Q92911 1-643)
chain: MEAVETGERPTFGAWDYGVFALMLLVSTGIGLWVGLARGGQRSAEDFFTGGRRLAALPVGLSLSASFMSAVQVLGVPSEAYRYGLKFLWMCLGQLLNSVLTALLFMPVFYRLGLTSTAEYLEMRFSRAVRLCGTLQYIVATMLYTGIVIYAPALILNQVTGLDIWASLLSTGIICTFYTAVGGMKAVVWTDVFQVVVMLSGFWVVLARGVMLVGGPRQVLTLAQNHSRINLMDFNPDPRSRYTFWTFVVGGTLVWLSMYGVNQAQVQRYVACRTEKQAKLALLINQVGLFLIVSSAACCGIVMFVFYTDCDPLLLGRISAPDQYMPLLVLDIFEDLPGVPGLFLACAYSGTLSTASTSINAMAAVTVEDLIKPRLRSLAPRKLVIISKGLSLIYGSACLTVAALSSLLGGGVLQGSFTVMGVISGPLLGAFILGMFLPACNTPGVLAGLGAGLALSLWVALGATLYPPSEQTMRVLPSSAARCVALSVNASGLLDPALLPANDSSRAPSSGMDASRPALADSFYAISYLYYGALGTLTTVLCGALISCLTGPTKRSTLAPGLLWWDLARQTASVAPKEEVAILDDNLVKGPEELPTGNKKPPGFLPTNEDRLFFLGQKELEGAGSWTPCVGHDGGRDQQETNL
As for B2, the binding entry in test [1] and in test [2] was “binds” throughout.

B3: hNIS L594A (protein, UniProt Q92911 1-643)
chain: MEAVETGERPTFGAWDYGVFALMLLVSTGIGLWVGLARGGQRSAEDFFTGGRRLAALPVGLSLSASFMSAVQVLGVPSEAYRYGLKFLWMCLGQLLNSVLTALLFMPVFYRLGLTSTYEYLEMRFSRAVRLCGTLQYIVATMLYTGIVIYAPALILNQVTGLDIWASLLSTGIICTFYTAVGGMKAVVWTDVFQVVVMLSGFWVVLARGVMLVGGPRQVLTLAQNHSRINLMDFNPDPRSRYTFWTFVVGGTLVWLSMYGVNQAQVQRYVACRTEKQAKLALLINQVGLFLIVSSAACCGIVMFVFYTDCDPLLLGRISAPDQYMPLLVLDIFEDLPGVPGLFLACAYSGTLSTASTSINAMAAVTVEDLIKPRLRSLAPRKLVIISKGLSLIYGSACLTVAALSSLLGGGVLQGSFTVMGVISGPLLGAFILGMFLPACNTPGVLAGLGAGLALSLWVALGATLYPPSEQTMRVLPSSAARCVALSVNASGLLDPALLPANDSSRAPSSGMDASRPALADSFYAISYLYYGALGTLTTVLCGALISCLTGPTKRSTLAPGLLWWDLARQTASVAPKEEVAILDDNLVKGPEEAPTGNKKPPGFLPTNEDRLFFLGQKELEGAGSWTPCVGHDGGRDQQETNL
With B3, the binding entry in test [1] and in test [2] was “binds” each time.

B4: hNIS L583A (protein, UniProt Q92911 1-643)
chain: MEAVETGERPTFGAWDYGVFALMLLVSTGIGLWVGLARGGQRSAEDFFTGGRRLAALPVGLSLSASFMSAVQVLGVPSEAYRYGLKFLWMCLGQLLNSVLTALLFMPVFYRLGLTSTYEYLEMRFSRAVRLCGTLQYIVATMLYTGIVIYAPALILNQVTGLDIWASLLSTGIICTFYTAVGGMKAVVWTDVFQVVVMLSGFWVVLARGVMLVGGPRQVLTLAQNHSRINLMDFNPDPRSRYTFWTFVVGGTLVWLSMYGVNQAQVQRYVACRTEKQAKLALLINQVGLFLIVSSAACCGIVMFVFYTDCDPLLLGRISAPDQYMPLLVLDIFEDLPGVPGLFLACAYSGTLSTASTSINAMAAVTVEDLIKPRLRSLAPRKLVIISKGLSLIYGSACLTVAALSSLLGGGVLQGSFTVMGVISGPLLGAFILGMFLPACNTPGVLAGLGAGLALSLWVALGATLYPPSEQTMRVLPSSAARCVALSVNASGLLDPALLPANDSSRAPSSGMDASRPALADSFYAISYLYYGALGTLTTVLCGALISCLTGPTKRSTLAPGLLWWDLARQTASVAPKEEVAIADDNLVKGPEELPTGNKKPPGFLPTNEDRLFFLGQKELEGAGSWTPCVGHDGGRDQQETNL
Turning to B4, the binding entry in test [1] and in test [2] was “binds” throughout.

B5: wild-type human sodium/iodide symporter (hNIS) (protein, UniProt Q92911 1-643)
chain: MEAVETGERPTFGAWDYGVFALMLLVSTGIGLWVGLARGGQRSAEDFFTGGRRLAALPVGLSLSASFMSAVQVLGVPSEAYRYGLKFLWMCLGQLLNSVLTALLFMPVFYRLGLTSTYEYLEMRFSRAVRLCGTLQYIVATMLYTGIVIYAPALILNQVTGLDIWASLLSTGIICTFYTAVGGMKAVVWTDVFQVVVMLSGFWVVLARGVMLVGGPRQVLTLAQNHSRINLMDFNPDPRSRYTFWTFVVGGTLVWLSMYGVNQAQVQRYVACRTEKQAKLALLINQVGLFLIVSSAACCGIVMFVFYTDCDPLLLGRISAPDQYMPLLVLDIFEDLPGVPGLFLACAYSGTLSTASTSINAMAAVTVEDLIKPRLRSLAPRKLVIISKGLSLIYGSACLTVAALSSLLGGGVLQGSFTVMGVISGPLLGAFILGMFLPACNTPGVLAGLGAGLALSLWVALGATLYPPSEQTMRVLPSSAARCVALSVNASGLLDPALLPANDSSRAPSSGMDASRPALADSFYAISYLYYGALGTLTTVLCGALISCLTGPTKRSTLAPGLLWWDLARQTASVAPKEEVAILDDNLVKGPEELPTGNKKPPGFLPTNEDRLFFLGQKELEGAGSWTPCVGHDGGRDQQETNL
In the case of B5, the binding entry in test [1] and in test [2] was “binds” each time.

B6: hNIS LL562/563AA (protein, UniProt Q92911 1-643)
chain: MEAVETGERPTFGAWDYGVFALMLLVSTGIGLWVGLARGGQRSAEDFFTGGRRLAALPVGLSLSASFMSAVQVLGVPSEAYRYGLKFLWMCLGQLLNSVLTALLFMPVFYRLGLTSTYEYLEMRFSRAVRLCGTLQYIVATMLYTGIVIYAPALILNQVTGLDIWASLLSTGIICTFYTAVGGMKAVVWTDVFQVVVMLSGFWVVLARGVMLVGGPRQVLTLAQNHSRINLMDFNPDPRSRYTFWTFVVGGTLVWLSMYGVNQAQVQRYVACRTEKQAKLALLINQVGLFLIVSSAACCGIVMFVFYTDCDPLLLGRISAPDQYMPLLVLDIFEDLPGVPGLFLACAYSGTLSTASTSINAMAAVTVEDLIKPRLRSLAPRKLVIISKGLSLIYGSACLTVAALSSLLGGGVLQGSFTVMGVISGPLLGAFILGMFLPACNTPGVLAGLGAGLALSLWVALGATLYPPSEQTMRVLPSSAARCVALSVNASGLLDPALLPANDSSRAPSSGMDASRPALADSFYAISYLYYGALGTLTTVLCGALISCLTGPTKRSTLAPGAAWWDLARQTASVAPKEEVAILDDNLVKGPEELPTGNKKPPGFLPTNEDRLFFLGQKELEGAGSWTPCVGHDGGRDQQETNL
In the case of B6, the binding result is reported as “binds weakly” in test [1] and “binds” in test [2].

B7: hNIS L587A (protein, UniProt Q92911 1-643)
chain: MEAVETGERPTFGAWDYGVFALMLLVSTGIGLWVGLARGGQRSAEDFFTGGRRLAALPVGLSLSASFMSAVQVLGVPSEAYRYGLKFLWMCLGQLLNSVLTALLFMPVFYRLGLTSTYEYLEMRFSRAVRLCGTLQYIVATMLYTGIVIYAPALILNQVTGLDIWASLLSTGIICTFYTAVGGMKAVVWTDVFQVVVMLSGFWVVLARGVMLVGGPRQVLTLAQNHSRINLMDFNPDPRSRYTFWTFVVGGTLVWLSMYGVNQAQVQRYVACRTEKQAKLALLINQVGLFLIVSSAACCGIVMFVFYTDCDPLLLGRISAPDQYMPLLVLDIFEDLPGVPGLFLACAYSGTLSTASTSINAMAAVTVEDLIKPRLRSLAPRKLVIISKGLSLIYGSACLTVAALSSLLGGGVLQGSFTVMGVISGPLLGAFILGMFLPACNTPGVLAGLGAGLALSLWVALGATLYPPSEQTMRVLPSSAARCVALSVNASGLLDPALLPANDSSRAPSSGMDASRPALADSFYAISYLYYGALGTLTTVLCGALISCLTGPTKRSTLAPGLLWWDLARQTASVAPKEEVAILDDNAVKGPEELPTGNKKPPGFLPTNEDRLFFLGQKELEGAGSWTPCVGHDGGRDQQETNL
As to B7, the binding entry in test [1] and in test [2] was “binds” in each case.
